Measurements reported in PubChem BioAssay AID1259405 (NCATS, 2018)

Assay: 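Knock-downs that lift recombinant protein yield in hamster ovary cells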 (primary screen)
System: Chinese hamster CHO-K1 ovary cells with stable secreted eGFP expression
Knock-down reagent: single siRNA against mouse genes, 0.8 pmol siRNA per well (2 µl of 400 nM stock)
Time to read-out: 3 days
Measurement: 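Percent of the per-plate non-targeting control median for intracellular GFP per well by laser scanning cytometry and for cell viability by ATP luminescence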
Scale: GFP, % of control: higher = more GFP per well, higher productivity; viability (ATP), % of control: higher = more viable cells (more ATP)
Call rule: 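a knock-down is called active if GFP reaches 120% or more of non-targeting control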
The whole screen tested about 50,000 reagents; this is a random part of them. About 4,000 of them (8%) were called active. 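Mouse siRNA library applied to hamster cells; one well for each siRNA.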 Unmarked entries are inactive. Reagents against one gene are numbered here.

Exoc4 #1 scored GFP, % of control 100; viability (ATP), % of control 91.5. For Exoc4 #2, the entry reads GFP, % of control 139 (active); viability (ATP), % of control 65.1. Exoc4 #3 scored GFP, % of control 95.8; viability (ATP), % of control 75.7. Rapgef3 #1 scored GFP, % of control 96.2; viability (ATP), % of control 47.4. Depletion of Rapgef3 #2 gave: GFP, % of control 91.9; viability (ATP), % of control 58. After knock-down of Rapgef3 #3, the screen gave GFP, % of control 95.7; viability (ATP), % of control 84.

With knock-down of Vps26a #1, the screen gave GFP, % of control 41.5; viability (ATP), % of control 47.4. With knock-down of Vps26a #2 the results were GFP, % of control 65.7; viability (ATP), % of control 79.9. Against Vps26a #3 the deposit lists GFP, % of control 68.1; viability (ATP), % of control 56.6. After knock-down of Fabp9 #1, the record shows GFP, % of control 46.2; viability (ATP), % of control 51.8. Against Fabp9 #2, the entry reads GFP, % of control 78.6; viability (ATP), % of control 65.1. Fabp9 #3 scored GFP, % of control 185 (active); viability (ATP), % of control 61.4.

Gdap1l1 #1 showed GFP, % of control 73; viability (ATP), % of control 56.9. For Gdap1l1 #2, the values are GFP, % of control 104; viability (ATP), % of control 75.1. Against Gdap1l1 #3, the entry reads GFP, % of control 89.4; viability (ATP), % of control 60. Gbe1 #1 gave GFP, % of control 129 (active); viability (ATP), % of control 62.3. After knock-down of Gbe1 #2, the screen gave GFP, % of control 92.4; viability (ATP), % of control 70.6. For Gbe1 #3 the deposit lists GFP, % of control 109; viability (ATP), % of control 99.

Dnajc19 #1 gave GFP, % of control 83.8; viability (ATP), % of control 81.6. Dnajc19 #2 scored GFP, % of control 108; viability (ATP), % of control 103. Depletion of Dnajc19 #3 resulted in: GFP, % of control 55.2; viability (ATP), % of control 73.1. With knock-down of Ank3 #1 the results were GFP, % of control 59; viability (ATP), % of control 56.1. Against Ank3 #2 the deposit lists GFP, % of control 57.7; viability (ATP), % of control 57.7. Depletion of Ank3 #3 resulted in: GFP, % of control 69.5; viability (ATP), % of control 86.6.

After knock-down of Gbp7 #1 the results were GFP, % of control 102; viability (ATP), % of control 73.9. Gbp7 #2 scored GFP, % of control 66.4; viability (ATP), % of control 71.3. For Gbp7 #3, the entry reads GFP, % of control 17.5; viability (ATP), % of control 22.9. Msl3 #1 showed GFP, % of control 96.1; viability (ATP), % of control 69.1. Knock-down of Msl3 #2 came out at: GFP, % of control 71; viability (ATP), % of control 73.1. Depletion of Msl3 #3 resulted in: GFP, % of control 51.4; viability (ATP), % of control 56.8.

Dlx5 #1 scored GFP, % of control 66; viability (ATP), % of control 69.9. With knock-down of Dlx5 #2 the results were GFP, % of control 107; viability (ATP), % of control 98.6. Knock-down of Dlx5 #3 gave: GFP, % of control 68.6; viability (ATP), % of control 80.5. Against Sdhc #1 the deposit lists GFP, % of control 157 (active); viability (ATP), % of control 73.9. Sdhc #2 showed GFP, % of control 114; viability (ATP), % of control 74.2. After knock-down of Sdhc #3, the record shows GFP, % of control 80.4; viability (ATP), % of control 92.6.

Lifr #1 showed GFP, % of control 120 (active); viability (ATP), % of control 96. Knock-down of Lifr #2 resulted in: GFP, % of control 112; viability (ATP), % of control 86.1. For Lifr #3, the entry reads GFP, % of control 64.1; viability (ATP), % of control 54.6. Krt17 #1 showed GFP, % of control 42.7; viability (ATP), % of control 69.8. Against Krt17 #2, the entry reads GFP, % of control 85.1; viability (ATP), % of control 93.8.

Already shown: an excerpt of the list.
Msl3 #1: GFP, % of control = 96.1; viability (ATP), % of control = 69.1
Msl3 #2: GFP, % of control = 71; viability (ATP), % of control = 73.1
Msl3 #3: GFP, % of control = 51.4; viability (ATP), % of control = 56.8
Dlx5 #1: GFP, % of control = 66; viability (ATP), % of control = 69.9
Dlx5 #2: GFP, % of control = 107; viability (ATP), % of control = 98.6
Dlx5 #3: GFP, % of control = 68.6; viability (ATP), % of control = 80.5
